# Experimental data taken from PubChem BioAssay AID1347076 (National Center for Advancing Translational Sciences (NCATS), 2019).
# Hit rate of the full screen: of about 400,000 compounds, about 13,000 (3.2%) were called active. The shares of active, inactive and inconclusive entries below differ from those in the screen. Calls come from the whole dose curve; as a rule, active = well fitted cell-killing curve with a large enough effect; inconclusive = small, poorly fitted or top-dose-only effect, or effect the other way; inactive = flat fitted curve, though single readings scatter. Potencies beside an inconclusive call are fits to weak or partial responses and may not hold up.
# Experiment: qHTS assay for MDR1-selective chemotherapeutics: Primary screen using the drug-selected MDR subline cells KB-V1; note: nearly all actives have a fitted effect of over 60% in size
# Details: KB-V1 MDR cells viability, CellTiter-Glo, 72 h; series mostly up to 46.1 µM
# In short: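 KB-V1, DMEM (no phenol red) + 10% FBS; cpd pin-transferred, titration series; 72 h, 37 degrees C; CellTiter-Glo, luminescence. Data normalized, curve-fit.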
# Potency is the fitted concentration of half-maximal effect.
row,Structure (SMILES),Potency
1,Cc1cc(C(=O)N2CCc3ccccc32)n(-c2ccccc2)n1,"inconclusive: 2.59 µM [cytotoxic, partial curve, poor fit]"
2,COc1ccc(Cl)cc1Cn1c(C)c(C(=O)N(C)Cc2ccc(F)cc2)sc1=O,"inconclusive: 16.4 µM [cytotoxic, partial curve]"
3,CCC(=O)NC(NC(=S)Nc1ccccc1Br)C(Cl)(Cl)Cl (centres undefined),inactive
4,CCCCN(CC(=O)NC(C)(C)C)C(=O)C(=O)Nc1ccc2c(c1)OCCO2,"inconclusive: 18.4 µM [cytotoxic, single point]"
5,CCNS(=O)(=O)c1ccc(C(=O)Nc2ccccc2)cc1,"inconclusive: 29.1 µM [cytotoxic, single point]"
6,C=CCn1c(-c2csc(-c3ccc(OC)c(OC)c3)n2)n[nH]c1=S,"inconclusive: 8.2 µM [cytotoxic, partial curve, poor fit]"
7,CCc1n[nH]c(=S)n1/N=C/c1cccc2ccccc12,active: 5.8 µM
8,COc1ccc(C(=O)Nc2ccc(Cl)c(S(=O)(=O)Nc3ccccc3OC)c2)cc1,active: 2.31 µM
9,CCCNC(=O)C1(C)CCN(C(=O)Cc2ccc(OC)c(OC)c2)C1 (centres undefined),inactive
10,O=C(Nc1cccc(Oc2ccccc2)c1)c1ccc(-n2cncn2)c2ccoc12,inactive
11,O=c1c2ccc([N+](=O)[O-])cc2ncn1CCOc1cccc(Br)c1,"inconclusive: 20.6 µM [cytotoxic, single point]"
12,O=C(CC1C(=O)NCCN1Cc1ccc(F)cc1)NCCCn1cccn1 (centres undefined),"inconclusive: 29.1 µM [rising, single point]"
13,COCCCn1c(=O)/c(=C\c2ccccc2OC(F)F)s/c1=C(/C#N)C(=O)N1CCOCC1,"inconclusive: 2.31 µM [cytotoxic, full curve]"
14,Cc1ccc(Nc2c(-c3ccc(N4CCOCC4)cc3)nc3cccc(C)n23)cc1,inactive
15,Cc1nc(Nc2ccccc2)sc1C(=O)c1ccc(F)cc1,inactive
16,Cc1cccc(CN2C(=O)c3ccccc3S(=O)(=O)c3ccc(C(=O)N(C)Cc4ccccc4)cc32)c1,"inconclusive: 23.1 µM [cytotoxic, single point]"
17,OC(c1cccc(OCc2ccccc2)c1)c1nnc(-c2ccccc2)o1 (centres undefined),"inconclusive: 29.1 µM [cytotoxic, single point]"
18,CCOC(=O)c1c(C)[nH]c(C)c1C(=O)CSc1nc2ccccc2c(=O)n1-c1ccc(Cl)cc1,active: 10.3 µM
19,CCN=C(Nc1ccc2c(c1)OCO2)SC1CC(=O)N(c2ccc(OC)cc2)C1=O (centres undefined),"inconclusive: 18.4 µM [cytotoxic, single point]"

# In a second layout: 2 of the compounds above
row	Structure (SMILES)	Potency
1	Cc1cc(C(=O)N2CCc3ccccc32)n(-c2ccccc2)n1	inconclusive: 2.59 µM [cytotoxic, partial curve, poor fit]
2	COc1ccc(Cl)cc1Cn1c(C)c(C(=O)N(C)Cc2ccc(F)cc2)sc1=O	inconclusive: 16.4 µM [cytotoxic, partial curve]
